Results reported in US20080233628A1.
Results are given in words; binding and its absence hold for the method and conditions named. Some entries that bind do so weakly or less than the wild type.

Key:
[1] = target: Steely1 C-terminal type III PKS domain (heterologously expressed Steely1 medium length (SIM) construct) (Dictyostelium discoideum) (UniProt Q55E72); test: X-ray crystal structure; self-association (homodimer)
[2] = target: Steely1 C-terminal type III PKS domain (heterologously expressed Steely1 medium length (SIM) construct) (Dictyostelium discoideum) (UniProt Q55E72); test: X-ray crystal structure, 2.9 Angstrom; self-association (homodimer)
[3] = target: Steely1 C-terminal type III PKS domain (heterologously expressed Steely1 medium length (SIM) construct) (Dictyostelium discoideum) (UniProt Q55E72); test: X-ray crystal structure, figure legend; self-association (homodimer)
[4] = target: Steely1 C-terminal type III PKS domain (heterologously expressed Steely1 medium length (SIM) construct) (Dictyostelium discoideum) (UniProt Q55E72); test: X-ray crystal structure, asymmetric unit content; self-association (homodimer)

Measured: binding

B1: Steely1 C-terminal type III PKS domain (heterologously expressed Steely1 medium length (SIM) construct) (enzyme)
chain: LSRLSYKSNNNSFVLGIGISVPGEPISQQSLKDSISNDFSDKAETNEKVKRIFEQSQIKTRHLVRDYTKPENSIKFRHLETITDVNNQFKKVVPDLAQQACLRALKDWGGDKGDITHIVSVTSTGIIIPDVNFKLIDLLGLNKDVERVSLNLMGCLAGLSSLRTAASLAKASPRNRILVVCTEVCSLHFSNTDGGDQMVASSIFADGSAAYIIGCNPRIEETPLYEVMCSINRSFPNTENAMVWDLEKEGWNLGLDASIPIVIGSGIEAFVDTLLDKAKLQTSTAISAKDCEFLIHTGGKSILMNIENSLGIDPKQTKNTWDVYHAYGNMSSASVIFVMDHARKSKSLPTYSISLAFGPGLAFEGCFLKNVV
binds: all assays above
